Data taken from paper PMC10208982, “Structural basis of catalytic activation in human splicing” (Nature, 2023).
These are yes or no findings as the source states them, for the method shown. Some binding calls cover weakened binding; strength is not graded here.

Amino acid sequences for entries named in this document (tags omitted).
UniProt Q13435: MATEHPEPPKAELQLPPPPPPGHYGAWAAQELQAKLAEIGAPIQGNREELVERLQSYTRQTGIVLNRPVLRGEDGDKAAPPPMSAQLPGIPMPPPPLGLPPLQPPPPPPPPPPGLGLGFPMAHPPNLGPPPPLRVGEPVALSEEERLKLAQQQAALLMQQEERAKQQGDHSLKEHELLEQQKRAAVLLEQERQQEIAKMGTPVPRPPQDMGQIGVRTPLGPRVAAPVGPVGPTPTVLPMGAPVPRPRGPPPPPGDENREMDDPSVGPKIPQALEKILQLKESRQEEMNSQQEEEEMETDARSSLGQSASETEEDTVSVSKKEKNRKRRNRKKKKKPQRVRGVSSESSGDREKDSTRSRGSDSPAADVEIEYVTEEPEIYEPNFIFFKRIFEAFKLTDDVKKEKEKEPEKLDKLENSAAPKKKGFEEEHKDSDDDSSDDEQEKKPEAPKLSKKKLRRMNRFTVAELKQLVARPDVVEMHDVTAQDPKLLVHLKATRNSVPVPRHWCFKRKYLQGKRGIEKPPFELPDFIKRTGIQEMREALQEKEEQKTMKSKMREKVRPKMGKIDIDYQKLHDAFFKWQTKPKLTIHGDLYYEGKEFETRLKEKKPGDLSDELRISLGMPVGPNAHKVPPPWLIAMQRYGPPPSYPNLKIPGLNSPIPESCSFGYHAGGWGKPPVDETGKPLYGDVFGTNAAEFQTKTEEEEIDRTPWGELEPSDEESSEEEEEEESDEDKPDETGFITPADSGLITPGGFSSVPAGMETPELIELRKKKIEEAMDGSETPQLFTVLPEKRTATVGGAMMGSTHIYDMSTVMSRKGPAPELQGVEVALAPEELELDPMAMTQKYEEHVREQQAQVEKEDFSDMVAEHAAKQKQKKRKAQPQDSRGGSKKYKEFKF
UniProt O75533: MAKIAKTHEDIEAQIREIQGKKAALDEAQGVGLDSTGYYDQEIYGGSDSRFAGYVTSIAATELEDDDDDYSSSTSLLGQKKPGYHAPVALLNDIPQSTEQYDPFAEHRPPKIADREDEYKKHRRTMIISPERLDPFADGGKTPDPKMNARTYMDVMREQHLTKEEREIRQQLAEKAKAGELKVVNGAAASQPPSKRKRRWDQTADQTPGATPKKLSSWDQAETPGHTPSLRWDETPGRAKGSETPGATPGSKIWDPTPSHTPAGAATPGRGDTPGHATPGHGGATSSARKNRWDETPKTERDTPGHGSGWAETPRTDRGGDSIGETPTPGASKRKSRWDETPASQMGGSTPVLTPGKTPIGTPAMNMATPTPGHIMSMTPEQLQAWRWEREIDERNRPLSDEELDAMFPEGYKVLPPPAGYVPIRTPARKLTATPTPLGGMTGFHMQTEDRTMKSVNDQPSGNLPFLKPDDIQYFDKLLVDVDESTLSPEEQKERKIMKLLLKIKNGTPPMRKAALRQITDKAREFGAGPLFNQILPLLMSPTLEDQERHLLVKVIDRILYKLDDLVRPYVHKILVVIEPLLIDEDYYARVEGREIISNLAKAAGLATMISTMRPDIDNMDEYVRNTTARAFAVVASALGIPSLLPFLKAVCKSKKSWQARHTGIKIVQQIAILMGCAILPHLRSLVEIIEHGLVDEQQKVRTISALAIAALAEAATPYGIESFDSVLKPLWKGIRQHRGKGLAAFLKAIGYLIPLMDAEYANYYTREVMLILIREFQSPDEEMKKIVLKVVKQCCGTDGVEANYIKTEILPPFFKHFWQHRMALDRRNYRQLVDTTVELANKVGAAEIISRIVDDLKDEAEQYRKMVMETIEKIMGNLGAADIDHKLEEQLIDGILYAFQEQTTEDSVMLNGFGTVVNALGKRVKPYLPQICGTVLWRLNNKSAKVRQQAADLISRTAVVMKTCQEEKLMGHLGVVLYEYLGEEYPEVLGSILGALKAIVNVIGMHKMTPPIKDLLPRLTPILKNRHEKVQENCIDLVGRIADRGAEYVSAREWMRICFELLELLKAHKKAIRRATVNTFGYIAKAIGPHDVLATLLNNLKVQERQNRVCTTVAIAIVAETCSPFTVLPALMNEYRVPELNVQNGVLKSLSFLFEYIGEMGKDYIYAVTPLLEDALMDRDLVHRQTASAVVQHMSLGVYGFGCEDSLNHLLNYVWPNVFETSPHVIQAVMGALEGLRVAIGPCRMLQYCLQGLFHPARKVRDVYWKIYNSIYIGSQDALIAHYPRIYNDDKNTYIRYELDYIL

B1: CWC15 (protein, UniProt Q9P013 1-229)
chain: MTTAARPTFEPARGGRGKGEGDLSQLSKQYSSRDLPSHTKIKYRQTTQDAPEEVRNRDFRRELEERERAAAREKNRDRPTREHTTSSSVSKKPRLDQIPAANLDADDPLTDEEDEDFEEESDDDDTAALLAELEKIKKERAEEQARKEQEQKAEEERIRMENILSGNPLLNLTGPSQPQANFKVKRRWDDDVVFKNCAKGVDDQKKDKRFVNDTLRSEFHKKFMEKYIK
B2: BUD13 (protein, UniProt Q9BRD0 1-619)
chain: MAAAPPLSKAEYLKRYLSGADAGVDRGSESGRKRRKKRPKPGGAGGKGMRIVDDDVSWTAISTTKLEKEEEEDDGDLPVVAEFVDERPEEVKQMEAFRSSAKWKLLGGHNEDLPSNRHFRHDTPDSSPRRVRHGTPDPSPRKDRHDTPDPSPRRARHDTPDPSPLRGARHDSDTSPPRRIRHDSSDTSPPRRARHDSPDPSPPRRPQHNSSGASPRRVRHDSPDPSPPRRARHGSSDISSPRRVHNNSPDTSRRTLGSSDTQQLRRARHDSPDLAPNVTYSLPRTKSGKAPERASSKTSPHWKESGASHLSFPKNSKYEYDPDISPPRKKQAKSHFGDKKQLDSKGDCQKATDSDLSSPRHKQSPGHQDSDSDLSPPRNRPRHRSSDSDLSPPRRRQRTKSSDSDLSPPRRSQPPGKKAAHMYSGAKTGLVLTDIQREQQELKEQDQETMAFEAEFQYAETVFRDKSGRKRNLKLERLEQRRKAEKDSERDELYAQWGKGLAQSRQQQQNVEDAMKEMQKPLARYIDDEDLDRMLREQEREGDPMANFIKKNKAKENKNKKVRPRYSGPAPPPNRFNIWPGYRWDGVDRSNGFEQKRFARLASKKAVEELAYKWSVEDM
B3: PRP2 (enzyme, UniProt O60231 1-1041)
chain: MATPAGLERWVQDELHSVLGLSERHVAQFLIGTAQRCTSAEEFVQRLRDTDTLDLSGPARDFALRLWNKVPRKAVVEKPARAAEREARALLEKNRSYRLLEDSEESSEETVSRAGSSLQKKRKKRKHLRKKREEEEEEEASEKGKKKTGGSKQQTEKPESEDEWERTERERLQDLEERDAFAERVRQRDKDRTRNVLERSDKKAYEEAQKRLKMAEEDRKAMVPELRKKSRREYLAKREREKLEDLEAELADEEFLFGDVELSRHERQELKYKRRVRDLAREYRAAGEQEKLEATNRYHMPKETRGQPARAVDLVEEESGAPGEEQRRWEEARLGAASLKFGARDAASQEPKYQLVLEEEETIEFVRATQLQGDEEPSAPPTSTQAQQKESIQAVRRSLPVFPFREELLAAIANHQVLIIEGETGSGKTTQIPQYLFEEGYTNKGMKIACTQPRRVAAMSVAARVAREMGVKLGNEVGYSIRFEDCTSERTVLRYMTDGMLLREFLSEPDLASYSVVMVDEAHERTLHTDILFGLIKDVARFRPELKVLVASATMDTARFSTFFDDAPVFRIPGRRFPVDIFYTKAPEADYLEACVVSVLQIHVTQPPGDILVFLTGQEEIEAACEMLQDRCRRLGSKIRELLVLPIYANLPSDMQARIFQPTPPGARKVVVATNIAETSLTIEGIIYVLDPGFCKQKSYNPRTGMESLTVTPCSKASANQRAGRAGRVAAGKCFRLYTAWAYQHELEETTVPEIQRTSLGNVVLLLKSLGIHDLMHFDFLDPPPYETLLLALEQLYALGALNHLGELTTSGRKMAELPVDPMLSKMILASEKYSCSEEILTVAAMLSVNNSIFYRPKDKVVHADNARVNFFLPGGDHLVLLNVYTQWAESGYSSQWCYENFVQFRSMRRARDVREQLEGLLERVEVGLSSCQGDYIRVRKAITAGYFYHTARLTRSGYRTVKQQQTVFIHPNSSLFEQQPRWLLYHELVLTTKEFMRQVLEIESSWLLEVAPHYYKAKELEDPHAKKMPKKIGKTREELG

What was measured:
Assay in all cases: cryo-EM structure; B^AQR spliceosome assembled on MINX-3×MS2 pre-mRNA in HeLa nuclear extract supplemented with recombinant IBC(K829A); MBP-MS2 affinity purification, glycerol gradient, cross-linked with 0.1% glutaraldehyde; core map about 2.9 Å
[1] = molecular target: SF3B2 (human (endogenous in HeLa)) (UniProt Q13435)
[2] = molecular target: T1, SF3A2 (human (endogenous in HeLa)) (UniProt Q15428)
T1 sequence: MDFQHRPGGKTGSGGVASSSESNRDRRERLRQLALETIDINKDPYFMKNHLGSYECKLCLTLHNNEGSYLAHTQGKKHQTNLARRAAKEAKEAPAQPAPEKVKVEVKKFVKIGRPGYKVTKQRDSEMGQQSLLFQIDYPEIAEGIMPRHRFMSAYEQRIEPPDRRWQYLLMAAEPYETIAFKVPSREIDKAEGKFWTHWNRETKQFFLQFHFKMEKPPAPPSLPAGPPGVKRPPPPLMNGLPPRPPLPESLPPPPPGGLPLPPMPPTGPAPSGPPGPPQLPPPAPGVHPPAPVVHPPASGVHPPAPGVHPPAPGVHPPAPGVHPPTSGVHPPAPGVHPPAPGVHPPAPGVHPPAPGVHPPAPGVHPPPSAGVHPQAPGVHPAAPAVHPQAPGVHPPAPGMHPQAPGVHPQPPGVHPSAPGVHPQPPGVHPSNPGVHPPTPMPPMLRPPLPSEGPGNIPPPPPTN

[3] = molecular target: T2, PPIL4 (human (endogenous in HeLa)) (UniProt Q8WUA2)
T2 sequence: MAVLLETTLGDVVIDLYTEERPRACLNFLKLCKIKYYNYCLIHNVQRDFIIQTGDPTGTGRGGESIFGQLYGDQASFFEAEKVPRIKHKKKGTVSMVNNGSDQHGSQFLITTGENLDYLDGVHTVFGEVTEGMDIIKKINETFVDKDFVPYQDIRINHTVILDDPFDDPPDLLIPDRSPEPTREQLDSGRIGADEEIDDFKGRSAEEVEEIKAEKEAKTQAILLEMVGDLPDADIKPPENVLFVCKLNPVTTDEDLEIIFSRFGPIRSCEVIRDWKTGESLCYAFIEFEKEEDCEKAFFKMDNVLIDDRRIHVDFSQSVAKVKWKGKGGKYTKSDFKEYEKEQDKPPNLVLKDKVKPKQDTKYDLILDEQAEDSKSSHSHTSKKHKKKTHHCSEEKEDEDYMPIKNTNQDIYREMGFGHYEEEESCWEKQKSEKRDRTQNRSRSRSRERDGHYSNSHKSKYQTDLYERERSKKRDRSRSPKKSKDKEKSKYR

[4] = molecular target: PRP8 (human (endogenous in HeLa)) (UniProt Q6P2Q9)
[5] = molecular target: T3, CWC22 (human (endogenous in HeLa)) (UniProt Q9HCG8)
T3 sequence: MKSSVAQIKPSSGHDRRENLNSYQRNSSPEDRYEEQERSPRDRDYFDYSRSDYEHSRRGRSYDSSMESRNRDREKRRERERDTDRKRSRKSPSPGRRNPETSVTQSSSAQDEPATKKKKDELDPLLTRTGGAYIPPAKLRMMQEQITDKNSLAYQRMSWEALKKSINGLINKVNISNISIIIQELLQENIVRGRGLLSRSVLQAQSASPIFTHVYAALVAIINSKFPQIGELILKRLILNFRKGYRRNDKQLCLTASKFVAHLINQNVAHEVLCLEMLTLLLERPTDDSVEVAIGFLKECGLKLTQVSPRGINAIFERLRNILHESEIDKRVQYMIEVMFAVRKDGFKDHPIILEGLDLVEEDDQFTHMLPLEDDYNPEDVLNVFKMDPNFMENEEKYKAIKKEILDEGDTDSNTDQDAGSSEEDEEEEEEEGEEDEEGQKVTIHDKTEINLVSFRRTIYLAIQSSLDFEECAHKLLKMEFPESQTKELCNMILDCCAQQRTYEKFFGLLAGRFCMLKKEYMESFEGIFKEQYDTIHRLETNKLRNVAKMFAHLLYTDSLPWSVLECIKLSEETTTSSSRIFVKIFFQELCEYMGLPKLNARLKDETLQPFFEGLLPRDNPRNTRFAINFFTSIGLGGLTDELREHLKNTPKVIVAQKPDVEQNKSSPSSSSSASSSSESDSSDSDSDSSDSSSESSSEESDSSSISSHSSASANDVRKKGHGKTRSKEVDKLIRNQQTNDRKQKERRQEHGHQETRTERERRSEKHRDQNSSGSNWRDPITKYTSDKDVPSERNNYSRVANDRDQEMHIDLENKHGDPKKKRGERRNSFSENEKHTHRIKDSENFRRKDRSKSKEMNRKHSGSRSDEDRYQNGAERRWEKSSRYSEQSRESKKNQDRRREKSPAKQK

[6] = molecular target: T4, PRP2 (human (endogenous in HeLa)) (UniProt O60231)
T4 sequence: B3 chain

Molecule	binding [4]	binding [5]	further results
SF3B1 (from UniProt O75533 1-1304)	–	–	binding [1]: binds; binding [2]: binds
B1	binds	–	binding [3]: binds
B2	binds	binds	binding [6]: binds
B3	–	binds	–
